Data from PubChem BioAssay AID248 (DTP/NCI, 2004).
The list is a part of this screen's results and no random one: it is rich in T/C values a quarter to a half above the control, in often repeated tests (any T/C) and in doses without a T/C. Further doses and runs are listed elsewhere. T/C gives the treated animals as a percentage of the vehicle group. Some entries give survivors of the animals treated and no T/C: the source holds a T/C of zero for them, seemingly a mark for toxic or unscored doses. Some survivor counts are full or nearly so, which does not show that the dose was tolerated: the source hardly ever lists a survival T/C far under the control, and the zero likely stands for such cases as well. Survivors were counted at the toxicity check, usually on the fifth day, unless a day is given; later deaths do not show. Schedules are NCI's codes, taken here to give the interval after Q, in days (D) or hours (H), and the number of doses after X. Some schedule codes hold Z or #, which are not explained here. Some doses were run more than once; their values stand side by side, smallest first. Some molecules as drawn cover several salts, stereoisomers or complexes of the source; a dose is that of the sample tested. Where survival is the endpoint, this PubChem deposit counts one and a half times the control or more as active, and values a quarter to a half above the control carry no call in these data; other NCI protocols may use other cut-offs. Marks such as (2×) stand for listed records that agree. Some T/C values are followed by the survivors on the day toxicity was checked, most often the fifth; where none is given, no animal had died by that day.

Tested on: L1210 leukemia ip in BDF1 mice, survival T/C
Test: NCI In Vivo Anticancer Drug Screen. Data for tumor model L1210 Leukemia (intraperitoneal) in B6D2F1 (BDF1) mice
Conditions: T/C endpoint: mean survival time, higher T/C = longer survival
[1] = dose: 200.0 mg/kg/injection, schedule: Q04DX003 (ip), vehicle: Klucel (hydroxypropylcellulose) (HPC)
[2] = dose: 400.0 mg/kg/injection, schedule: Q04DX003 (ip), vehicle: Klucel (hydroxypropylcellulose) (HPC)
[3] = dose: 200.0 mg/kg/injection, schedule: Q04DX003 (ip), vehicle: saline with Tween-80
[4] = dose: 100.0 mg/kg/injection, schedule: Q04DX003 (ip), vehicle: Klucel (hydroxypropylcellulose) (HPC)
[5] = dose: 50.0 mg/kg/injection, schedule: Q04DX003 (ip), vehicle: saline
[6] = dose: 100.0 mg/kg/injection, schedule: Q04DX003 (ip), vehicle: saline
[7] = dose: 400.0 mg/kg/injection, schedule: Q04DX003 (ip), vehicle: saline
[8] = dose: 200.0 mg/kg/injection, schedule: Q04DX002 (ip), vehicle: Klucel (hydroxypropylcellulose) (HPC)
[9] = dose: 400.0 mg/kg/injection, schedule: Q04DX003 (ip), vehicle: saline with Tween-80
[10] = dose: 400.0 mg/kg/injection, schedule: Q04DX002 (ip), vehicle: saline with Tween-80
[11] = dose: 400.0 mg/kg/injection, schedule: Q01DX001 (ip), vehicle: saline
[12] = dose: 100.0 mg/kg/injection, schedule: Q04DX002 (ip), vehicle: saline with Tween-80
[13] = dose: 200.0 mg/kg/injection, schedule: Q04DX003 (ip), vehicle: saline

CN(Cc1cnc2nc(N)nc(N)c2n1)c1ccc(C(=O)NC(CCC(=O)OC(C)(C)C)C(=O)OC(C)(C)C)cc1 (stereo not drawn)
T/C (dose: 12.5 mg/kg/injection, schedule: Q01DX009 (ip), vehicle: Klucel (hydroxypropylcellulose) (HPC)): 135 % of control
survivor count (dose: 100.0 mg/kg/injection, schedule: Q01DX009 (ip), vehicle: Klucel (hydroxypropylcellulose) (HPC)): 6 of 6
T/C [1]: 145 % of control
survivor count [2]: 3 of 3

CCCCCCCCCCCCCCCCCC[Se][Se]CCCCCCCCCCCCCCCCCC
survivor count (dose: 50.0 mg/kg/injection, schedule: Q01DX009 (ip), vehicle: saline with Tween-80): 6 of 6
survivor count (dose: 100.0 mg/kg/injection, schedule: Q01DX009 (ip), vehicle: saline with Tween-80): 6 of 6
survivor count [3]: 6 of 6

O=C1CCC(=O)N1c1ccc(Cl)cc1
survivor count [4]: 0 of 10
survivor count [1]: 0 of 10
survivor count [2]: 0 of 10

Cc1ccc(NC(N)=S)cc1
survivor count [4]: 4 of 6
survivor count [1]: 3 of 6
survivor count [2]: 0 of 6

N#Cc1ccc[nH]1
T/C (dose: 400.0 mg/kg/injection, schedule: Q01DX001 (sc), vehicle: carboxymethylcellulose (CMC)): 134 % of control
survivor count (dose: 600.0 mg/kg/injection, schedule: Q01DX001 (ip), vehicle: carboxymethylcellulose (CMC)): 0 of 4

CN(Cc1cnc2nc(N)nc(N)c2n1)c1cc(Cl)c(C(=O)NC(CCC(=O)O)C(=O)O)cc1Cl (stereo not drawn)
T/C (dose: 25.0 mg/kg/injection, schedule: Q01DX009 (ip), vehicle: sodium bicarbonate): 132 % of control
T/C (dose: 50.0 mg/kg/injection, schedule: Q01DX009 (ip), vehicle: sodium bicarbonate): 144 % of control

COc1ccc(OC)c(NC(=O)Nc2nccs2)c1
T/C [1]: 126 % of control

COCCOCCN1CCN(CCCN2c3ccccc3Sc3ccc(C(F)(F)F)cc32)CC1
T/C (dose: 25.0 mg/kg/injection, schedule: Q04DX003 (ip), vehicle: saline): 131 % of control
T/C (dose: 33.0 mg/kg/injection, schedule: Q04DX003 (ip), vehicle: saline): 147 % of control
survivor count (dose: 35.0 mg/kg/injection, schedule: Q04DX003 (ip), vehicle: saline): 6 of 6
T/C [5]: 138 % of control
survivor count [5]: 3 of 6
survivor count (dose: 75.0 mg/kg/injection, schedule: Q04DX003 (ip), vehicle: saline): 0 of 6 and 5 of 6
survivor count [6]: 6 of 6

NC(=O)N/N=C(/CCC(=O)O)C(=O)O
survivor count [6]: 6 of 6
survivor count [7]: 6 of 6

CCCSC(CCc1cnc(N)nc1C)SCCC
survivor count (dose: 100.0 mg/kg/injection, schedule: Q04DX002 (ip), vehicle: Klucel (hydroxypropylcellulose) (HPC)): 3 of 3
survivor count [8]: 3 of 3

CN(CCS)Cc1ccccc1
survivor count [3]: 2 of 6
survivor count [9]: 0 of 6

Cc1ccc(Cl)cc1NC(=O)Nc1ccc(N(C)C)cc1
survivor count [10]: 6 of 6

COc1ccccc1C(=Nc1ccccc1)N(O)c1ccccc1
survivor count (dose: 10.0 mg/kg/injection, schedule: Q01DX009 (ip), vehicle: saline with Tween-80): 3 of 6

COc1ccc(CN(C)CCN(C)CCN(C)Cc2ccc(OC)cc2)cc1
survivor count (dose: 200.0 mg/kg/injection, schedule: Q01DX009 (ip), vehicle: water): 0 of 6
survivor count (dose: 400.0 mg/kg/injection, schedule: Q01DX009 (ip), vehicle: water): 0 of 6

CC1=Nc2ccccc2N=C(C)C1
survivor count [11]: 0 of 4
survivor count [9]: 1 of 6

COc1ccc(-c2ccc(OC)c(OC)c2OC)c(N)c1
survivor count (dose: 35.0 mg/kg/injection, schedule: Q01DX Z (ip), vehicle: carboxymethylcellulose (CMC)): 6 of 6

NNc1n[nH]c(=S)n1N
survivor count [5]: 6 of 6

CC(C)C(CN=C(N)N)c1cccc2ccccc12 (stereo not drawn)
survivor count [12]: 0 of 3

Cc1nc(Br)c2cnccn12
survivor count (dose: 50.0 mg/kg/injection, schedule: Q01DX009 (ip), vehicle: saline): 0 of 6
survivor count [6]: 2 of 6
survivor count [13]: 0 of 6
survivor count [7]: 0 of 6

O=C1C2=C(C(=O)c3ccccc31)C1C=CC2CC1
survivor count (dose: 200.0 mg/kg/injection, schedule: Q01DX001 (ip), vehicle: carboxymethylcellulose (CMC)): 1 of 4
survivor count (dose: 400.0 mg/kg/injection, schedule: Q01DX001 (ip), vehicle: carboxymethylcellulose (CMC)): 0 of 4

O=C(/C(=C/c1ccccc1)CN1CCOCC1)c1ccccc1
survivor count [1]: 4 of 6
survivor count [2]: 0 of 6

O=c1[nH]c(=O)c2ncsc2[nH]1
survivor count [9]: 0 of 6

OC(CNc1ccc(Cl)cc1)CN1CCOCC1 (stereo not drawn)
survivor count [7]: 4 of 6

COc1cc2c(cc1OC)C1=C(CC2)C2CCCN2CC1 (stereo not drawn)
survivor count [6]: 0 of 6 and 1 of 6
survivor count [13]: 0 of 6
survivor count [7]: 0 of 6

O=[N+]([O-])c1ccc(-c2ccccc2)c([As](=O)(O)O)c1
survivor count (dose: 50.0 mg/kg/injection, schedule: Q04DX002 (ip), vehicle: saline with Tween-80): 1 of 3
survivor count [12]: 0 of 3
survivor count (dose: 200.0 mg/kg/injection, schedule: Q04DX002 (ip), vehicle: saline with Tween-80): 0 of 3
survivor count [10]: 0 of 3

CCOC(=O)/C(=C/c1ccc(OC)c(OC)c1)P(=O)(OCC)OCC
survivor count (dose: 200.0 mg/kg/injection, schedule: Q01DX001 (ip), vehicle: saline): 0 of 4
survivor count [11]: 0 of 4

c1ccc2c[n+](CCc3c[nH]c4ccccc34)ccc2c1
survivor count [8]: 0 of 3
survivor count (dose: 400.0 mg/kg/injection, schedule: Q04DX002 (ip), vehicle: Klucel (hydroxypropylcellulose) (HPC)): 0 of 3
survivor count [2]: 1 of 3

CCNc1ncnc2c1c(C(N)=S)cn2C1OC(CO)C(O)C1O (stereo not drawn)
T/C (dose: 12.5 mg/kg/injection, schedule: Q01DX005 (ip), vehicle: saline): 127 % of control
T/C (dose: 25.0 mg/kg/injection, schedule: Q01DX005 (ip), vehicle: saline): 142 % of control
T/C (dose: 35.0 mg/kg/injection, schedule: Q01DX005 (ip), vehicle: saline): 125 % of control
survivor count (dose: 50.0 mg/kg/injection, schedule: Q01DX005 (ip), vehicle: saline): 6 of 6
survivor count (dose: 50.0 mg/kg/injection, schedule: Q01DX009 (ip), vehicle: Klucel (hydroxypropylcellulose) (HPC)): 0 of 6
survivor count (dose: 100.0 mg/kg/injection, schedule: Q01DX005 (ip), vehicle: saline): 3 of 6
survivor count (dose: 200.0 mg/kg/injection, schedule: Q01DX005 (ip), vehicle: saline): 3 of 6

C[N+](C)(C)CCO
T/C (dose: 50.0 mg/kg/injection, schedule: Q04DX003 (ip), vehicle: water, evaluated on day 5): 99 and 101 % of control (2×)
T/C (dose: 50.0 mg/kg/injection, schedule: Q04DX003 (ip), vehicle: water, evaluated on day 60): 100 and 105 % of control
T/C (dose: 100.0 mg/kg/injection, schedule: Q04DX003 (ip), vehicle: water, evaluated on day 5): 99 and 101 % of control (2×)
T/C (dose: 100.0 mg/kg/injection, schedule: Q04DX003 (ip), vehicle: water, evaluated on day 60): 98 and 102 % of control
T/C (dose: 200.0 mg/kg/injection, schedule: Q04DX003 (ip), vehicle: water, evaluated on day 5): 102 and 103 % of control (2×)
T/C (dose: 200.0 mg/kg/injection, schedule: Q04DX003 (ip), vehicle: water, evaluated on day 60): 96 [9 of 10 alive] and 100 % of control

C=C1CC(=O)N(c2ccc(Cl)cc2)C1=O
survivor count (dose: 100.0 mg/kg/injection, schedule: Q01DX001 (ip), vehicle: saline with Tween-80): 3 of 6
survivor count (dose: 200.0 mg/kg/injection, schedule: Q01DX001 (ip), vehicle: saline with Tween-80): 1 of 6
survivor count (dose: 400.0 mg/kg/injection, schedule: Q01DX001 (ip), vehicle: saline with Tween-80): 0 of 6
